The list shows a part of the results.
Key:
Experiment in all cases: log2 fold change, soluble protein after heating vs DMSO (PISA); higher = thermal stabilisation; K562 cells, 10 uM, 30 min; active = over 0.2 and 3.5 SD of the protein, either way, in both replicates (recomputed)
[1] = compound: CC[C@@H]1C(=O)N(C)c2cnc(Nc3ccc(C(=O)NC4CCN(C)CC4)cc3OC)nc2N1C1CCCC1
Summary of the method: (§1)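 K562 cells at 2×10^6 cells/mL were exposed to 10 μM compound for 30 min, then aliquots were heated for 3 min across 48°C-58°C, pooled, and extracted in PBS containing 0.5% NP-40 at 4°C. The supernatant after 21,000xg for 90 min was taken as soluble protein and measured by TMTpro 16plex LC-MS/MS with channel sums equalised. Thermal stability is reported relative to control samples, with values from duplicates. Fold changes are given on a log2 scale.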

By UniProt entry, the sequences of proteins in these tests, tags left out. Where a name states a change or a piece, a line headed by the entry shows the natural chain unless it says otherwise.
UniProt O95071: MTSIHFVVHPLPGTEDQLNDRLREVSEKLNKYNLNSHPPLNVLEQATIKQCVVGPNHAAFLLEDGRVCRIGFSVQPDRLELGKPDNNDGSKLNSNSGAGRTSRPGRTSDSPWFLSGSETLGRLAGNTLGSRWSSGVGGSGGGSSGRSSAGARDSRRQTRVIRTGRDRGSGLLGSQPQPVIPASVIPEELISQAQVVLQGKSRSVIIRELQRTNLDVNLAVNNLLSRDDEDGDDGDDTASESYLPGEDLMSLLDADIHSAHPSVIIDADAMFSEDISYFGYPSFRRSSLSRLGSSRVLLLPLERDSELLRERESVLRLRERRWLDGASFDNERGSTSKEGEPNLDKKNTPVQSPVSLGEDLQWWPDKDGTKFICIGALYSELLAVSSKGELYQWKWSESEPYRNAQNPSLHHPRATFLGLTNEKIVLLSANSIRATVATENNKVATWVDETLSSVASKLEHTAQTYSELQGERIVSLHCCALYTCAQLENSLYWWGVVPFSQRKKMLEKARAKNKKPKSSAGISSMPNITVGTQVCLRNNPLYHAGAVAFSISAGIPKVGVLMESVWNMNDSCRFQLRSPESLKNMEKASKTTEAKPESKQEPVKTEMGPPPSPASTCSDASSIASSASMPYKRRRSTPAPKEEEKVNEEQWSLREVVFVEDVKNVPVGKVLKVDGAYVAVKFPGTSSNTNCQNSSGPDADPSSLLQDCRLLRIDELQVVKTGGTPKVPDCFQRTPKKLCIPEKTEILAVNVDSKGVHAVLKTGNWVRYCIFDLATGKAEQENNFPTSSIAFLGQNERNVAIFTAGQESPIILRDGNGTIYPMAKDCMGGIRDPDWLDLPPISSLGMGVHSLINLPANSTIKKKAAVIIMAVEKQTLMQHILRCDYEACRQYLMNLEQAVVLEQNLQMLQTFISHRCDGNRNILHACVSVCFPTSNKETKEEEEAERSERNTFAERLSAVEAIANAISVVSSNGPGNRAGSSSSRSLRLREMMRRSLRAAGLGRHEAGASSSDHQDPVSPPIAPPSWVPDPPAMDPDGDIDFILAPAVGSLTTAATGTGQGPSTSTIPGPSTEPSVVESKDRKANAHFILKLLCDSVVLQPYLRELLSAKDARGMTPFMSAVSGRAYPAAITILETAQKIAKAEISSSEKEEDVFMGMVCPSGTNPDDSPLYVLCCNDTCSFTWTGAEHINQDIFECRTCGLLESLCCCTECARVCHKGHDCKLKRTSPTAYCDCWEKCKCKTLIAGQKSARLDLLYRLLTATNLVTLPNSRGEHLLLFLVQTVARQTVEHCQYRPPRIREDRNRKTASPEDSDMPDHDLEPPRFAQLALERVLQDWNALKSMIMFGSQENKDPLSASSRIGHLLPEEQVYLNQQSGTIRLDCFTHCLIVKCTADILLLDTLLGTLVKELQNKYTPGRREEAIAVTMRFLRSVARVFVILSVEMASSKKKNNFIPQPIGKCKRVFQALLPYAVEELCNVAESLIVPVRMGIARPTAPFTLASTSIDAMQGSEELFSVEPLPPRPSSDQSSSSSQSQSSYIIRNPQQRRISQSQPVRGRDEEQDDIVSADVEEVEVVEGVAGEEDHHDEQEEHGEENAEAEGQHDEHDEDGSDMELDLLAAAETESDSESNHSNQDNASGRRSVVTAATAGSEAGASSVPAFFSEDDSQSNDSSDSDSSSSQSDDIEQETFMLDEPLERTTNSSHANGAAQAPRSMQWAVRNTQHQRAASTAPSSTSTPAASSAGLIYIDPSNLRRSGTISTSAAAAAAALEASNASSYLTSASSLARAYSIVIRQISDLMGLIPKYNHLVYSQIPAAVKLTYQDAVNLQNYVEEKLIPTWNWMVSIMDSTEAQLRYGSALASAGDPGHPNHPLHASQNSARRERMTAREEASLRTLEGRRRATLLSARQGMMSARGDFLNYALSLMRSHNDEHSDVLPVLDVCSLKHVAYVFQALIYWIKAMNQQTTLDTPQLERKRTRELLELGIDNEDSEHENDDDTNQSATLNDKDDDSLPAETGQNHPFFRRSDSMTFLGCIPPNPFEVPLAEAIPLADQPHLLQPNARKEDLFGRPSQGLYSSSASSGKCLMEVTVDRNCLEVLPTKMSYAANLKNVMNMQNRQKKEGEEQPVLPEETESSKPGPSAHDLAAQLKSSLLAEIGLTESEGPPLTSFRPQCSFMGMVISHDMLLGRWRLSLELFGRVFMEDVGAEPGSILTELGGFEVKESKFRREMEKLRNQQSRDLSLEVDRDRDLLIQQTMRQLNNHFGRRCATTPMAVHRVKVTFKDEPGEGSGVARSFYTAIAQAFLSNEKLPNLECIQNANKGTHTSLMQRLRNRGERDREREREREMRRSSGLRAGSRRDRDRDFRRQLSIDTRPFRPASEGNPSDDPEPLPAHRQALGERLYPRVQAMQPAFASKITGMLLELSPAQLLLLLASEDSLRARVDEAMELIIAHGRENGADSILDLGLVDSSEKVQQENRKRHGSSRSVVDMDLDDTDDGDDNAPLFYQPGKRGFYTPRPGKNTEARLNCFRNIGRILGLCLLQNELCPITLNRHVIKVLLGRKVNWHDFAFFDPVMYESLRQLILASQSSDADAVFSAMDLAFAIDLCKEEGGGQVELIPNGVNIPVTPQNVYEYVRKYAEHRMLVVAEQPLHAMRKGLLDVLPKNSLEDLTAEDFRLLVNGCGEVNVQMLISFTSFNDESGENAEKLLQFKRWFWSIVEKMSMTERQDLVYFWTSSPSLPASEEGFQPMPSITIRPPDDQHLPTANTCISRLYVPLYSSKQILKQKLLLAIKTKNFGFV
UniProt Q9BZL1: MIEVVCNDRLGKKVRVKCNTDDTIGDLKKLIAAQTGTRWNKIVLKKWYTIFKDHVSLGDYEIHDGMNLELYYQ
UniProt Q9Y3C8: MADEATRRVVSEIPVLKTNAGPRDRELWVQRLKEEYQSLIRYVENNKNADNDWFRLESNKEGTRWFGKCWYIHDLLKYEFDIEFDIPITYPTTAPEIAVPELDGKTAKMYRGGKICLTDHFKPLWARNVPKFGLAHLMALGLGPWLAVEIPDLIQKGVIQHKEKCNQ
UniProt Q16880: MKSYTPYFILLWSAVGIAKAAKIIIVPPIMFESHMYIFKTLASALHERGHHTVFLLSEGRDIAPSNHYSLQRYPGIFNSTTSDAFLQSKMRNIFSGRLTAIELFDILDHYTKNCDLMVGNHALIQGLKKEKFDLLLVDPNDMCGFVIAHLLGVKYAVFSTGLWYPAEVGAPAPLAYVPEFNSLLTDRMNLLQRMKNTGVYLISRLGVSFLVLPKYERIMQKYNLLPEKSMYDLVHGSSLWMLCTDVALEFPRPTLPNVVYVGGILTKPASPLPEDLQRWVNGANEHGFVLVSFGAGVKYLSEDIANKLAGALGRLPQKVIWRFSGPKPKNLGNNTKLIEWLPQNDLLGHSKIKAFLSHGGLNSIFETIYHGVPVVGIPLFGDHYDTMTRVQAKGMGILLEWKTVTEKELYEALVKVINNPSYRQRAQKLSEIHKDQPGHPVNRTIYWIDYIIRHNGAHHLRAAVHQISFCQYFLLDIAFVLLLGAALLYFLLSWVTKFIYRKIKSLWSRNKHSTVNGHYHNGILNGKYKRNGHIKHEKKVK
UniProt O60763: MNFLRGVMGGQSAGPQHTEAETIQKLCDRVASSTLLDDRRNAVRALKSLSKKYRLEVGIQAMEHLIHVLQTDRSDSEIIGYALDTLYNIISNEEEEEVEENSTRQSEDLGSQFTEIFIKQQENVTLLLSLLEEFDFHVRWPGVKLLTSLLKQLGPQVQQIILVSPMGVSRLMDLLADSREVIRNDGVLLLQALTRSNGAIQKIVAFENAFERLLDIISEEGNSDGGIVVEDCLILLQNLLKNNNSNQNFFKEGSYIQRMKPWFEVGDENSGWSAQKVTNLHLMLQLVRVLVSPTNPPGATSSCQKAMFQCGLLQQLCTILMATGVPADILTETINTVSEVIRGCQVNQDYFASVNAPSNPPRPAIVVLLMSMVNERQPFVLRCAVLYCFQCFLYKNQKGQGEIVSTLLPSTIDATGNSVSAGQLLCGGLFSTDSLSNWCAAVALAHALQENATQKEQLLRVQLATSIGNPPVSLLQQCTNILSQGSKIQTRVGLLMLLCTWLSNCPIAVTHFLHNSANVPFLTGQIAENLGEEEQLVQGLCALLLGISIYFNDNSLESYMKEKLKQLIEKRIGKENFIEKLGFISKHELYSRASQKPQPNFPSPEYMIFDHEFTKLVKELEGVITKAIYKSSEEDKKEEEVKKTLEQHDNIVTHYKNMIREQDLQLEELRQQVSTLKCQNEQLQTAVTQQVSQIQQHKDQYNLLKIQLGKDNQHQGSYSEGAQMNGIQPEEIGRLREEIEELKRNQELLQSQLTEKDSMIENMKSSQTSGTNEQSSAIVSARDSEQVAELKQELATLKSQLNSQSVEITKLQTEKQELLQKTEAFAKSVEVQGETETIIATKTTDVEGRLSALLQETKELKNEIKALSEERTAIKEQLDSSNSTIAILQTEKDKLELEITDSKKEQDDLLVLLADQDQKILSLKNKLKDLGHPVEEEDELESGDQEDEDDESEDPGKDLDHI
UniProt Q8NBZ7: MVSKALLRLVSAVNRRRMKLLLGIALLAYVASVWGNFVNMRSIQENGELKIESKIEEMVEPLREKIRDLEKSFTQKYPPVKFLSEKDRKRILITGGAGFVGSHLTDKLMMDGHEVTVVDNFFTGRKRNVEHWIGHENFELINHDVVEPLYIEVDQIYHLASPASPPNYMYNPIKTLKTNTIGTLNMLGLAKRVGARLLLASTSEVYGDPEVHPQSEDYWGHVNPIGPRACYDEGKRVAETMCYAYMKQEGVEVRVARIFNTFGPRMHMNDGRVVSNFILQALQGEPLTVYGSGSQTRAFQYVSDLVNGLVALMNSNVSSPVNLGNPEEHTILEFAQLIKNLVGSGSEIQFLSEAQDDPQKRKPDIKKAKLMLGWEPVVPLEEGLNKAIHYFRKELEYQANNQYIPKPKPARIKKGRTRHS
UniProt Q92738: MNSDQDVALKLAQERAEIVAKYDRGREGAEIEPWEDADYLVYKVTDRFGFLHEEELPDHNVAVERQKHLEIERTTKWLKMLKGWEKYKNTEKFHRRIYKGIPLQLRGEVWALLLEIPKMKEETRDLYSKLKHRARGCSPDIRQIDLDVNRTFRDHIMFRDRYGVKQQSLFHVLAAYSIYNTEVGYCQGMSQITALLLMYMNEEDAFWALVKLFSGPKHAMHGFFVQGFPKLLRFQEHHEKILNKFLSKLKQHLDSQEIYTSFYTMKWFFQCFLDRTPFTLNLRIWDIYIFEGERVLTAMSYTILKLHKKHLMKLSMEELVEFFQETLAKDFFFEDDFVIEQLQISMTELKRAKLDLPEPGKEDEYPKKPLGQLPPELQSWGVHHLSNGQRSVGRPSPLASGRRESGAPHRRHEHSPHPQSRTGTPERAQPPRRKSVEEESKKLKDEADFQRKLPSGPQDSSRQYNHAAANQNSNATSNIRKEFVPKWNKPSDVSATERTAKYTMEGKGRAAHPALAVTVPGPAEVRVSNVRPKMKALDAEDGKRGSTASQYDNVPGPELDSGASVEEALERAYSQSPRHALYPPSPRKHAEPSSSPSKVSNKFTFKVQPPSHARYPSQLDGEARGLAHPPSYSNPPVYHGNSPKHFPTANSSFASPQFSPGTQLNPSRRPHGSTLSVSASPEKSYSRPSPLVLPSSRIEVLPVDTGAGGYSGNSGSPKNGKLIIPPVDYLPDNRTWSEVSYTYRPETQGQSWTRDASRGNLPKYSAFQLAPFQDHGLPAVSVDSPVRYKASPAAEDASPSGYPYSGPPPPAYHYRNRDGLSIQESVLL
UniProt P50552: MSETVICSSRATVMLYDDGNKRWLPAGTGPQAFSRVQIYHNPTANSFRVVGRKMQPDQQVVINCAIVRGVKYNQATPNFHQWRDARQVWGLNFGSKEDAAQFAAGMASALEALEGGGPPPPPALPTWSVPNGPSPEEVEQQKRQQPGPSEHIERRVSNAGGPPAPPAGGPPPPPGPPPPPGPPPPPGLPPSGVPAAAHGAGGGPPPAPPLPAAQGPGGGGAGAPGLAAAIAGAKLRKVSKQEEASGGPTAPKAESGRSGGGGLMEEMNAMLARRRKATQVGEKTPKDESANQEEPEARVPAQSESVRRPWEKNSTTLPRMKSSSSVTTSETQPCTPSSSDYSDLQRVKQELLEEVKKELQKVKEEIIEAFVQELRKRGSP
UniProt P06132: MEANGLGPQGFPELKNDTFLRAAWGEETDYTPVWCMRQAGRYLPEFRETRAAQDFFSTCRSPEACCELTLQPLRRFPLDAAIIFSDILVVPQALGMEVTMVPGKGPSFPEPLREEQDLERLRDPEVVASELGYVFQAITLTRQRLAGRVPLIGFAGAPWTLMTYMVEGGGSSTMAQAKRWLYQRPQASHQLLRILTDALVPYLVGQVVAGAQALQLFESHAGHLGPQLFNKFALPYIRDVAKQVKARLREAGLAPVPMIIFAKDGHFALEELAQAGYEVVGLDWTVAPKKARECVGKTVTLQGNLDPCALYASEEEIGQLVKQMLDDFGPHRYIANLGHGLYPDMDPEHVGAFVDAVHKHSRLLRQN

volasertib = compound: CC[C@@H]1C(=O)N(C)c2cnc(Nc3ccc(C(=O)N[C@H]4CC[C@H](N5CCN(CC6CC6)CC5)CC4)cc3OC)nc2N1C(C)C [volasertib]
Summary of the method: as §1

[2] = compound: CC[C@H](C)N1C=C(C2=C(C=C(C=C21)C3=CN=C(C=C3)N4CCNCC4)C(=O)NCC5=C(C=C(NC5=O)C)C)C
Summary of the method: as §1

epoxomicin = compound: CC[C@H](C)[C@@H](C(=O)N[C@@H]([C@@H](C)O)C(=O)N[C@@H](CC(C)C)C(=O)[C@]1(CO1)C)NC(=O)[C@H]([C@@H](C)CC)N(C)C(=O)C [epoxomicin]
Summary of the method: as §1

[3] = compound: CCn1c(C(=O)N(C2CC2)C2CC2)cc2c3c(ncn3C)c(Nc3cc(C)n(C)n3)nc21
Summary of the method: as §1

[4] = compound: CCn1cc(-c2ccnc3[nH]c(-c4cccc(CN(C)C)c4)cc23)c(-c2ccc(NC(=O)N(C)C)cc2)n1
Summary of the method: as §1

[5] = compound: CN(C)CC(=O)Nc1ccc2[nH]c(=O)c3ccccc3c2c1
Summary of the method: as §1

rosiglitazone = compound: CN(CCOC1=CC=C(C=C1)C[C@H]2C(=O)NC(=O)S2)C3=CC=CC=N3 (racemic) [rosiglitazone]
Summary of the method: as §1

[6] = compound: CN1C2=C(C3=C1C(=O)N(N=C3)CC4=CC(=CC=C4)N)SC(=C2)S(=O)C
Summary of the method: as §1

[7] = compound: CN1CCC(CNc2ccc3ncc(-c4cccc(OC(F)(F)F)c4)n3n2)CC1
Summary of the method: as §1

Target	log2 fold change [1]	log2 fold change (volasertib)	log2 fold change [2]	log2 fold change (epoxomicin)	log2 fold change [3]	log2 fold change [4]	log2 fold change [5]	log2 fold change (rosiglitazone)	log2 fold change [6]	log2 fold change [7]
UQCRQ (UniProt O14949)	inactive: 0.014	inactive: 0.067	inactive: -0.05	inactive: 0.009	inactive: 0.02	inactive: -0.005	inactive: -0.053	inactive: -0.029	inactive: -0.056	inactive: 0.155
UBXN7 (UniProt O94888)	inactive: -0.029	inactive: -0.107	inactive: -0.003	inactive: 0.037	inactive: -0.029	inactive: -0.067	inactive: -0.017	inactive: 0.019	inactive: -0.053	inactive: -0.022
UBQLN4 (UniProt Q9NRR5)	inactive: 0.009	inactive: 0.055	inactive: -0.076	inactive: 0.037	inactive: 0.017	inactive: 0.023	inactive: -0.018	inactive: -0.01	inactive: -0.035	inactive: 0.019
USP19 isoform 6 (UniProt O94966)	inactive: 0	inactive: -0.112	inactive: 0.064	inactive: 0.018	inactive: -0.044	inactive: -0.042	inactive: 0.043	inactive: 0.027	inactive: -0.084	inactive: 0.016
UPF1 (UniProt Q92900)	inactive: 0.05	inactive: -0.115	inactive: 0.03	inactive: 0.009	inactive: -0.059	inactive: -0.011	inactive: 0.006	inactive: 0.018	inactive: -0.027	inactive: -0.026
UQCRFS1 (UniProt P47985)	inactive: -0.036	inactive: 0.075	inactive: -0.017	inactive: 0.07	inactive: 0.037	inactive: 0.041	inactive: 0	inactive: 0.015	inactive: -0.032	inactive: 0.032
ULBP2 (UniProt Q9BZM5)	inactive: -0.036	inactive: 0.251	inactive: -0.008	inactive: 0.108	–	–	–	–	–	–
UBR5 (UniProt O95071)	inactive: -0.028	inactive: -0.298	inactive: 0.07	inactive: -0.148	inactive: -0.007	inactive: 0.061	inactive: -0.002	inactive: 0.003	inactive: 0.112	inactive: 0.023
UBL5 (UniProt Q9BZL1)	inactive: -0.1	inactive: -0.158	inactive: 0.1	inactive: 0.102	inactive: -0.037	inactive: -0.052	inactive: 0.007	inactive: 0.027	inactive: 0.006	inactive: 0.056
UFC1 (UniProt Q9Y3C8)	inactive: -0.042	inactive: 0.055	inactive: -0.004	inactive: -0.036	inactive: -0.014	inactive: -0.012	inactive: -0.052	inactive: 0.034	inactive: -0.083	inactive: 0.016
UGT8 (UniProt Q16880)	inactive: 0.126	inactive: 0.017	inactive: 0.051	inactive: 0.032	inactive: 0.343	inactive: -0.092	inactive: -0.109	inactive: -0.05	inactive: -0.01	inactive: 0.219
USO1 isoform 2 (UniProt O60763)	inactive: -0.108	active: -0.254	inactive: 0.025	inactive: 0.043	–	inactive: -0.018	inactive: 0.015	–	inactive: -0.059	inactive: -0.111
UBXN4 (UniProt Q92575)	inactive: -0.035	inactive: -0.062	inactive: 0.024	inactive: 0.033	inactive: 0.005	inactive: -0.07	inactive: 0.006	inactive: 0.016	inactive: -0.026	inactive: -0.068
VAPB (UniProt O95292)	inactive: 0.006	inactive: 0.046	inactive: 0.035	inactive: 0.069	inactive: 0.009	inactive: -0.001	inactive: -0.001	inactive: 0	inactive: -0.042	inactive: 0.078
VAPA isoform 2 (UniProt Q9P0L0)	inactive: 0.008	inactive: 0.073	inactive: -0.034	inactive: -0.025	inactive: -0.014	inactive: 0	inactive: -0.038	inactive: 0	inactive: -0.041	inactive: 0.129
USP30 (UniProt Q70CQ3)	inactive: -0.091	inactive: -0.014	inactive: 0.061	inactive: 0.399	inactive: -0.181	–	inactive: -0.145	inactive: 0.011	inactive: 0.084	–

Target	log2 fold change [1]	log2 fold change (volasertib)	log2 fold change [2]	log2 fold change (epoxomicin)	log2 fold change [3]	log2 fold change [4]	log2 fold change [5]	log2 fold change (rosiglitazone)	log2 fold change [6]	log2 fold change [7]
UBR4 isoform 2 (UniProt Q5T4S7)	inactive: -0.031	inactive: -0.179	inactive: 0.055	inactive: 0.012	inactive: -0.039	inactive: 0.022	inactive: 0.015	inactive: 0.007	inactive: 0.118	inactive: -0.088
UXS1 isoform 2 (UniProt Q8NBZ7)	inactive: 0.087	inactive: 0.104	inactive: 0.058	inactive: -0.029	inactive: -0.011	–	inactive: -0.021	inactive: -0.05	inactive: 0.04	–
UBXN1 (UniProt Q04323)	inactive: 0.002	inactive: 0.008	inactive: -0.015	inactive: 0.1	inactive: 0.008	inactive: -0.016	inactive: 0	inactive: 0.014	inactive: -0.024	inactive: -0.157
VAT1 (UniProt Q99536)	inactive: 0.028	inactive: 0.078	inactive: 0.036	inactive: 0.011	inactive: 0.02	inactive: -0.032	inactive: 0.008	inactive: 0.004	inactive: -0.062	inactive: 0.143
USP6NL isoform 2 (UniProt Q92738)	inactive: -0.173	inactive: -0.237	inactive: 0.001	inactive: 0.048	inactive: -0.017	–	inactive: 0.126	–	inactive: 0.072	–
UGGT2 (UniProt Q9NYU1)	inactive: 0.01	inactive: 0.057	inactive: -0.053	inactive: 0.057	inactive: -0.007	inactive: 0.024	inactive: -0.103	inactive: -0.046	inactive: 0.107	inactive: 0.064
UTP15 (UniProt Q8TED0)	inactive: 0.194	inactive: 0.328	inactive: -0.058	inactive: -0.328	inactive: 0.023	inactive: 0.195	inactive: -0.164	inactive: -0.096	inactive: 0.21	inactive: 0.354
VASP (UniProt P50552)	inactive: -0.066	inactive: -0.291	inactive: 0.125	inactive: 0.006	inactive: -0.12	inactive: -0.019	inactive: 0.079	inactive: 0.08	inactive: 0.1	inactive: -0.145
UGP2 (UniProt Q16851)	inactive: 0.026	inactive: 0.057	inactive: -0.001	inactive: 0.023	inactive: 0.006	inactive: -0.005	inactive: -0.016	inactive: -0.003	inactive: -0.053	inactive: -0.053
UBQLN3 (UniProt Q9H347)	inactive: 0.016	inactive: -0.175	inactive: -0.094	inactive: -0.01	inactive: -0.063	inactive: 0.109	inactive: -0.096	–	inactive: -0.007	inactive: -0.119
UBE4A isoform 2 (UniProt Q14139)	inactive: -0.126	active: -0.584	inactive: 0.123	inactive: 0.087	–	inactive: -0.055	inactive: 0.053	–	inactive: 0.159	active: -0.436
VCL (UniProt P18206)	inactive: 0.018	inactive: 0.084	inactive: -0.037	inactive: 0.02	inactive: 0.012	inactive: 0.012	inactive: -0.015	inactive: 0.001	inactive: -0.041	inactive: 0.04
UROD (UniProt P06132)	inactive: 0	inactive: 0.057	inactive: -0.006	inactive: 0.005	inactive: 0.006	inactive: -0.035	inactive: -0.031	inactive: 0	inactive: 0.003	inactive: -0.015
UBL7 (UniProt Q96S82)	inactive: 0	inactive: -0.156	inactive: 0.028	inactive: 0.085	inactive: -0.005	inactive: 0.128	inactive: 0.061	inactive: 0.06	inactive: -0.13	inactive: 0.039
UCHL3 (UniProt P15374)	inactive: -0.052	inactive: -0.114	inactive: 0.041	inactive: 0.029	inactive: 0.013	inactive: -0.094	inactive: 0.012	inactive: 0.022	inactive: -0.023	inactive: -0.079

Only log2 fold change [2], log2 fold change [1] and log2 fold change (rosiglitazone) (2 entries from above):
Target | log2 fold change [2] | log2 fold change [1] | log2 fold change (rosiglitazone)
UBXN7 (UniProt O94888) | inactive: -0.003 | inactive: -0.029 | inactive: 0.019
UPF1 (UniProt Q92900) | inactive: 0.03 | inactive: 0.05 | inactive: 0.018

From the supplement of paper PMC10849652
